Results published in patent US20190316085A1, “Methods Of T-Lymphocyte Expansion” (Cambridge Enterprise Limited, priority 2015, published 2019).

System: CD8^+ T-lymphocytes
Test: LC-MS/MS quantification of intracellular 2HG
Type: cell-based, mouse

Row | Compound | intracellular concentration of 2HG (activated wild type CD8+ T-lymphocytes, 21% oxygen, printed ±30 μM) [µM] | mean intracellular concentration of 2HG (hypoxia (1% oxygen), printed ±0.25 mM) [mM] | share of the total 2HG pool (hypoxia) [%] | share of the total 2HG pool (normoxic activated CD8+ primary T-lymphocytes) [%]
1 | O=C(O)CCC(O)C(=O)O (stereo not shown) [2HG, 2-hydroxyglutarate] | 190 | 1.71 | – | –
2 | O=C(O)CC[C@H](O)C(=O)O [S-2HG, S-2-hydroxyglutarate] | – | – | 90 | ~60
